From patent US20260183367A1
These are yes or no findings as the source states them, for the method shown. In cells and extracts the contact can be indirect. Some binding calls cover weakened binding; strength is not graded here. Tags and fused reporters may be left off the sequences shown.

Sequences of proteins named here, by UniProt entry; tags and fusion partners are left off. Residues count along the entry.
UniProt P49790, residues 2-1475: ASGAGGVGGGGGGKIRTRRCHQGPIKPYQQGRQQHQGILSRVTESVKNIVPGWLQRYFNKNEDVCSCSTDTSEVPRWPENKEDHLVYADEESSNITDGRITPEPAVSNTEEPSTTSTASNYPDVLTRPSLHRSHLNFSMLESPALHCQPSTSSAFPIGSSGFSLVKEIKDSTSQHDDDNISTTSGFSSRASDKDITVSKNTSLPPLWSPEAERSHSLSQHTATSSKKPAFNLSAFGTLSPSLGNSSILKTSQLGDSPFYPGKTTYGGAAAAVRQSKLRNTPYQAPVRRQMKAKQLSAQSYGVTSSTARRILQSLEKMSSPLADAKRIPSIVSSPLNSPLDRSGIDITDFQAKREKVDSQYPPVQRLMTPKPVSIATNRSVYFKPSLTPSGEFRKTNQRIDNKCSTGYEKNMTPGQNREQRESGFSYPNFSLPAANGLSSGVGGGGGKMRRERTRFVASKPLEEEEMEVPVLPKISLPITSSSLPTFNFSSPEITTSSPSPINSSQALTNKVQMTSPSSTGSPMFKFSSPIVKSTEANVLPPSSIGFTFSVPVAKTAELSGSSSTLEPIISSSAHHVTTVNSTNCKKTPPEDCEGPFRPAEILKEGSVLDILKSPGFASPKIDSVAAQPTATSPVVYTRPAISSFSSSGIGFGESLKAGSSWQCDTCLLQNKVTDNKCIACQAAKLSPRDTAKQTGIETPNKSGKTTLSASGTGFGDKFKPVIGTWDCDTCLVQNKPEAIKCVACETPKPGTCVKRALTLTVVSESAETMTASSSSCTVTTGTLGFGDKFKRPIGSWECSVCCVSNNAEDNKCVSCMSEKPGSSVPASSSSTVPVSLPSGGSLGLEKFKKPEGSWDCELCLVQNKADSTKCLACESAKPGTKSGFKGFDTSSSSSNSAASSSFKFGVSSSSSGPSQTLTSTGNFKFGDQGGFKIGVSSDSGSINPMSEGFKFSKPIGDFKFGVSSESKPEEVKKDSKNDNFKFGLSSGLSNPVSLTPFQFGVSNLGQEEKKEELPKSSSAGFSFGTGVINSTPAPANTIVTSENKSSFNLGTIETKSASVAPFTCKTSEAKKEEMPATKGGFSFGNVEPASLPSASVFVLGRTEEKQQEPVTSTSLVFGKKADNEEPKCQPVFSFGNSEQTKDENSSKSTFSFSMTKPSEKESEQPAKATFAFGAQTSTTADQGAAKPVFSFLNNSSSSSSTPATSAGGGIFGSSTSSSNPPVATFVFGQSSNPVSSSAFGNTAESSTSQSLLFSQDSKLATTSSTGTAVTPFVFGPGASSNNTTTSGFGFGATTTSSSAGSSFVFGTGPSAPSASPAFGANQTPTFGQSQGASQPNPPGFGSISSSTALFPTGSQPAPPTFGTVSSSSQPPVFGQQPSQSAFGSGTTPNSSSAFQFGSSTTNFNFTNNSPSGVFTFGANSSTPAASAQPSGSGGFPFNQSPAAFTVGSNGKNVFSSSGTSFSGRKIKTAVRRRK

Experiments:
GFP-TDP-43-mNLS = GFP-TDP-43-mNLS (UniProt Q13148); test: co-immunoprecipitation from HEK293 cells, immunoblot
Nup153 = Nup153 (UniProt P49790); test: as above

B1: mCherry-tagged Nup50-N (1-210) (protein, not shown: large carriers)
chain: MAKRNAEKELTDRNWDQEDEAEDVGTFSMASEEVLKNRAIKKAKRRNVGFESDTGGAFKGFKGLVVPSGGGRFSGFGSGAGGKPLEGLSNGNNITSAPPFASAKAAADPKVAFGSLAANGPTTLVDKVSNPKTNGDSQQPSSSGLASSKACVGNAYHKQLAALNCSVRDWIVKHVNTNPLCDLTPIFKDYEKYLANIEQQHGNSGRNSES
In the case of B1, the binding (GFP-TDP-43-mNLS) is reported as “binds” and the binding (Nup153) is reported as “binds”.

In the case of LAALNCSVRDWIVKHVNTNPLCDLTPIFKDYEKYLANIEQQ (peptide, not shown: large carriers) [mCherry-tagged Nup50 160-200], the binding (GFP-TDP-43-mNLS) is reported as “binds” and the binding (Nup153) is reported as “binds”.
